Measurements taken from article PMC8948670.
These are yes or no findings as the source states them, for the method shown. Binding seen in cells or lysates may run through a third protein.

By UniProt entry, the sequences of proteins in these tests, tags left out. Where a name states a change or a piece, a line headed by the entry shows the natural chain unless it says otherwise.
UniProt Q00944: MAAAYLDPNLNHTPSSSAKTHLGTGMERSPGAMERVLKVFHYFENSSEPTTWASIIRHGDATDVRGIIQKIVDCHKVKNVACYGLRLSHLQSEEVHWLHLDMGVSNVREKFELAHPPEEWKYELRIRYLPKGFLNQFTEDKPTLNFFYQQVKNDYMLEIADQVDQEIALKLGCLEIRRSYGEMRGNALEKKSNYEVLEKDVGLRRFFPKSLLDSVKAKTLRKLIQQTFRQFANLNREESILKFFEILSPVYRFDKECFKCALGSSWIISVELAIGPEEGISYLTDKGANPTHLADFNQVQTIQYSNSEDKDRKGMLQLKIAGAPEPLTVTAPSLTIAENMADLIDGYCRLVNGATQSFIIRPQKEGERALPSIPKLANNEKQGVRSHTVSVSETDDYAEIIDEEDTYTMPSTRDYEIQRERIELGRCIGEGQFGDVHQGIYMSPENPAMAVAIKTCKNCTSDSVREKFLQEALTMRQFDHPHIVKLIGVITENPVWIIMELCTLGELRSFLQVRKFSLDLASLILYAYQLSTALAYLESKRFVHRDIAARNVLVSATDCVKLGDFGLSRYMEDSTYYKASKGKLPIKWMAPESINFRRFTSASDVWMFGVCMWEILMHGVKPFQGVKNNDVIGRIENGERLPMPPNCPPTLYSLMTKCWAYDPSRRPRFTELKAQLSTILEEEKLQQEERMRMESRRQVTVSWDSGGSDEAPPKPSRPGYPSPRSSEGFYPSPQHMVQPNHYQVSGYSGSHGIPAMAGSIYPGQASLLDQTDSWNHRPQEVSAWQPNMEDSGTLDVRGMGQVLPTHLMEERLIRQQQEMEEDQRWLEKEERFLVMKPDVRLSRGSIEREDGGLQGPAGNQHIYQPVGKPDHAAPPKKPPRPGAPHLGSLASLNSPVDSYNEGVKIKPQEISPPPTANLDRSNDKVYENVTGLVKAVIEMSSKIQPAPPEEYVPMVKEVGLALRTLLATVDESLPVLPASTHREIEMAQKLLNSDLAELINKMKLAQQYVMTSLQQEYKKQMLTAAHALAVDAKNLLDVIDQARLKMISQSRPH
UniProt O00443: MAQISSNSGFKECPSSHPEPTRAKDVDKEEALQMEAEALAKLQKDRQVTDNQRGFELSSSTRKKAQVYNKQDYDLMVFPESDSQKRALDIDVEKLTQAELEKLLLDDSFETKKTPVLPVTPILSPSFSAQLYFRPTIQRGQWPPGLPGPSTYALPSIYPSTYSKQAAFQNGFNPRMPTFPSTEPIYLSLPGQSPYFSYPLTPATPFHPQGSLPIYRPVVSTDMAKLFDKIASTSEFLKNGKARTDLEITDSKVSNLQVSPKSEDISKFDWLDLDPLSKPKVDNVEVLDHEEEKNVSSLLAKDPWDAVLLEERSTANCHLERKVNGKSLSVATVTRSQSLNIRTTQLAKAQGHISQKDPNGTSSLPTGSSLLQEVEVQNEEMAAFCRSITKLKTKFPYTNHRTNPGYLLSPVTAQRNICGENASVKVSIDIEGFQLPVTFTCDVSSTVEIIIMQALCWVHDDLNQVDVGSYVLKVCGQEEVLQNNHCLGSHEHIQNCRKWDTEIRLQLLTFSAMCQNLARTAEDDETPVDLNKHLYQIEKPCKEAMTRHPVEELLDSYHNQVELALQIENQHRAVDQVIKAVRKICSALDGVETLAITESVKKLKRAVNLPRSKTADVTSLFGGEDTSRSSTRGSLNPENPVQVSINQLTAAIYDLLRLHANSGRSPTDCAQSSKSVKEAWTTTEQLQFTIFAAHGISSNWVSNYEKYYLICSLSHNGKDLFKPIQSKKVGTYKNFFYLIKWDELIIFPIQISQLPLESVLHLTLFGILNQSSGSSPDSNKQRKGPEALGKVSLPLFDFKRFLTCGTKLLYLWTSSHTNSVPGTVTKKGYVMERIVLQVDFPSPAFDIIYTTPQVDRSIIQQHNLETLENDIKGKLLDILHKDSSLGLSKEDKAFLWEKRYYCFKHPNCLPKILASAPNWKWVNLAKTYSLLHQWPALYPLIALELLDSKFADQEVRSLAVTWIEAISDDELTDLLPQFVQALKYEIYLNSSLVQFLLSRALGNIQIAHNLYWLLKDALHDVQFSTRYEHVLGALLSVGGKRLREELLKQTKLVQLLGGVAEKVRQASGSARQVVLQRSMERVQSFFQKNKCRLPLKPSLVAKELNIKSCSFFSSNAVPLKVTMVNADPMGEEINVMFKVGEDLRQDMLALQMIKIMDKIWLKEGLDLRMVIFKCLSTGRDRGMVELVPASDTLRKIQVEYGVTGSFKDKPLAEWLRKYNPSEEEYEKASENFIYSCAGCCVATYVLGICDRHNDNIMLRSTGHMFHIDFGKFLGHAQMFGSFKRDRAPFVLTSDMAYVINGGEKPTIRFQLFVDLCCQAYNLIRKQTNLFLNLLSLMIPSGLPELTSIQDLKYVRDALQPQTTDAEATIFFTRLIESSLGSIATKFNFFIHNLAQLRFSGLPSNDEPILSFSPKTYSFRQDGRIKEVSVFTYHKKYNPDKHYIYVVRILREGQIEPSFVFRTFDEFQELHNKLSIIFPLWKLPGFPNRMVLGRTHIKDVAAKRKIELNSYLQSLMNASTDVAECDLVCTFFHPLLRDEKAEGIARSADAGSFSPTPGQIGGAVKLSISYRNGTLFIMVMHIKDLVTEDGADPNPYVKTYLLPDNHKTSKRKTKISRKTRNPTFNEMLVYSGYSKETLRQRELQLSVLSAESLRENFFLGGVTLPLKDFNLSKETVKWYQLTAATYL

Molecular target: HA‐FAK (UniProt Q00944)
Test: co-IP; HEK293T cells transfected with HA‐FAK and GFP‐PI3KC2α (WT, HBD or HBD deleted); HA‐FAK immunoprecipitated with anti HA antibody and protein G‐Sepharose, bound proteins blotted with anti GFP or anti HA; lysis in 50 mM Tris‐HCl, 150 mM NaCl, 1% NP‐40, 1 mM EDTA, 10% glycerol; 4 °C

In the case of “GFP‐PI3KC2αΔHBD (from UniProt O00443) (enzyme)”, the binding is reported as “no binding”.
